Reference: patent US20140220596A1 (MEDICINAL BIOCONVERGENCE RESEARCH CENTER, published 2014)
No constants are given. Whether binding was seen depends on the method and setting. Tags and fused reporters may be left off the sequences shown.

Sequences of proteins named here, by UniProt entry; tags and fusion partners are left off. Residues count along the entry.
UniProt P02769, residues 25-607: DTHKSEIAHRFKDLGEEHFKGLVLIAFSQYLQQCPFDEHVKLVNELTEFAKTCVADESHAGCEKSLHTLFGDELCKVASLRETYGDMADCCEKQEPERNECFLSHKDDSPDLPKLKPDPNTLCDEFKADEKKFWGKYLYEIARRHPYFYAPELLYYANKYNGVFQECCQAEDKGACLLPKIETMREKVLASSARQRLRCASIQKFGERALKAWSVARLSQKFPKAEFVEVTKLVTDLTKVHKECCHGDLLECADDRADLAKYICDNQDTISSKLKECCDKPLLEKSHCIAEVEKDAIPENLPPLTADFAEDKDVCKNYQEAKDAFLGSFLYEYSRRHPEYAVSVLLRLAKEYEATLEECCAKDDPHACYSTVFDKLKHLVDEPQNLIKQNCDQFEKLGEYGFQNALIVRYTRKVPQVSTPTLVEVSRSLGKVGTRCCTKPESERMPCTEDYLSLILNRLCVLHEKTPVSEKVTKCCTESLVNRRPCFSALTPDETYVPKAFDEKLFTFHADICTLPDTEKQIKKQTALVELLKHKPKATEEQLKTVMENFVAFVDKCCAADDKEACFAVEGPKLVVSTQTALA

Target: T1, Fc-fused soluble cadherin-6 (extracellular domain of CDH6 fused to the Fc fragment of human IgG1) (human) (UniProt P55285)
T1 sequence: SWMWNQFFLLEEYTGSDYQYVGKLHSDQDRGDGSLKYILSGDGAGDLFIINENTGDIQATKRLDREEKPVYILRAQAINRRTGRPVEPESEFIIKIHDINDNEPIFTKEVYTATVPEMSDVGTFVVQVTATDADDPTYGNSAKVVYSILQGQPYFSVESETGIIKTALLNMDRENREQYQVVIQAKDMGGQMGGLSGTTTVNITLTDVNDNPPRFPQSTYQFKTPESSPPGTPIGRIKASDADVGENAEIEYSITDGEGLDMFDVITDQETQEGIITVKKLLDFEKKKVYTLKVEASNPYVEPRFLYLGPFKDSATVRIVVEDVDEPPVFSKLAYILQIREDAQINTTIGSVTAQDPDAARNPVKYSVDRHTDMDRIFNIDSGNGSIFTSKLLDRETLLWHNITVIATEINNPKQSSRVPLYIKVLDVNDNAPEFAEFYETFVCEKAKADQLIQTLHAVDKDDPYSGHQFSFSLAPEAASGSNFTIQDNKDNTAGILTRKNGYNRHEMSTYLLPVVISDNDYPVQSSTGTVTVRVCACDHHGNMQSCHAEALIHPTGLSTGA
Test: ELISA of GST-fused GRS proteins with CDH6 (format not described further), normalized OD value

binding: no binding
Substance: BSA (from UniProt P02769)
